Data published in PubChem BioAssay AID540275 (National Center for Advancing Translational Sciences (NCATS), 2011).
“And” between values parts separate entries of the source, which are not always exact repeats. Equal entries are not always repeated. The campaign covered roughly 320,000 compounds. About 620 (0.19%) were called active. Inconclusive means that the source gave no clear call. Such entries were picked first, then a sample of the others. Rule as the data show it: active = activation above about 80%; inconclusive = between about 30% and that limit; inactive = weaker than that.

Protein sequences, listed by entry. Tags and fused reporters are not part of them.
UniProt Q8NER1, whole entry, looked up: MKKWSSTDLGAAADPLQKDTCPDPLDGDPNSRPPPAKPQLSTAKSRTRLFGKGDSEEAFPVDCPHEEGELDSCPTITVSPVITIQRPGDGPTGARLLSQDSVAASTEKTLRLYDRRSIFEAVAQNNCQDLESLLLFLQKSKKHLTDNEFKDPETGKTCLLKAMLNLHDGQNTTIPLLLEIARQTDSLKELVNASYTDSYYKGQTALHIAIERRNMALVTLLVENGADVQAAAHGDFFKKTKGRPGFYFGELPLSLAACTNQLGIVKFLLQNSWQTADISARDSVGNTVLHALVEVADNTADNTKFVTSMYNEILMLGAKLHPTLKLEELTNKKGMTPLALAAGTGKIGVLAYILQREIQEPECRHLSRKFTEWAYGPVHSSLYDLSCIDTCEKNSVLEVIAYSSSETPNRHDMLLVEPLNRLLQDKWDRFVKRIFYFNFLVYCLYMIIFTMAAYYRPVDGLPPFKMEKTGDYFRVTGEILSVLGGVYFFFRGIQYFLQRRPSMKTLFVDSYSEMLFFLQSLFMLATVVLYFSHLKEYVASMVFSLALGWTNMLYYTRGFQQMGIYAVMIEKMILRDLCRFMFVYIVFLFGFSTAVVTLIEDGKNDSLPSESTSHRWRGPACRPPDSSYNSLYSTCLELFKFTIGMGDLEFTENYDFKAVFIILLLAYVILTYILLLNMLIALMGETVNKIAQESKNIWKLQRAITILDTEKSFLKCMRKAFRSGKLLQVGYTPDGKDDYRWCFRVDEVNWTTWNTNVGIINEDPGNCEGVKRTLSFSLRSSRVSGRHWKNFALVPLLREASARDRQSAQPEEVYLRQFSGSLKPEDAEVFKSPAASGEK

target: Transient receptor potential cation channel subfamily V member 1 (Homo sapiens) (UniProt Q8NER1); assay: HTS Assay for Compounds that Act as Agonists of the Vanilloid Receptor 1; conditions: TRPV1-expressing cells, Fluo-8 calcium influx, agonist mode; at 8.33 µM, stronger effect = higher value; also: 0% is about no effect
In short: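 Fluo-8 calcium influx in TRPV1-expressing cells, kinetic read (ex 480/em 520 nm). Compound added and read 3 min for agonist activity, followed by capsaicin at EC20 final and 2 min further read for enhancement.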

| Structure (SMILES) | activation |
| --- | --- |
| CS(=O)(=O)c1ccc(C(=O)OCC(=O)NC(=O)C2CCCCC2)cc1[N+](=O)[O-] | inactive: -1.36% |
| CCOC(=O)Cc1csc(NC(=O)c2ccc3c(c2)OCO3)n1 | inconclusive: 37.9% |
| Cn1nccc1C(=O)NC1CCCc2c1cnn2-c1ccc(C(C)(C)C)cc1 (configuration not stated) | active: 81% |
| COc1ccc(N=Cc2sc(O)c3ccccc23)cc1 | inactive: 2.12% |
| CC(C)Cn1nc(NC(=O)C2CCCO2)c2cc3ccccc3nc21 (configuration not stated) | inconclusive: 68.3% |
| COc1cc(CNCc2ccncc2)cc(Br)c1OCc1ccccc1F | inconclusive: 43.5% |
| O=C(CNC(=O)OCc1ccccc1)Nc1ccc(F)cc1 | inconclusive: 31.5% |
| CCc1ccc(N2C(=O)CN(Cc3cccs3)C2=S)cc1 | inconclusive: 34% |
| S=C(N/N=C/c1ccc(Br)cc1)N1CCCCC1 | inconclusive: 41.6% |
| O=[N+]([O-])c1cc(S(=O)(=O)NC2=NCCCCC2)ccc1NCC1CCCCC1 | inconclusive: 45.3% |
| CCC(=O)N1CCc2cc(-c3csc(NC(=O)c4ccco4)n3)ccc21 | inactive: -1.85% |
| Cc1ccc(-c2nn(-c3ccccc3)cc2/C=C/C(=O)OCC(=O)NC2CC2)o1 | inconclusive: 63.1% |
| O=C(Nc1ccc(O)c(-c2nc3ccccc3s2)c1)c1cccs1 | inconclusive: 42.3% |
| COc1ccc(NS(=O)(=O)c2cccc(C(=O)OCC(=O)N3CCN(c4ccc(OC)cc4)CC3)c2)cc1 | inactive: -1.2% |
| CN(C)C1=NC[C@H](Cc2ccccc2)N1CCCC1CCCCC1 | inactive: -1.86% |
| COc1cccc(CN(C)C(=O)C(CCSC)NS(=O)(=O)c2ccc3c(c2)OCCO3)c1OC (configuration not stated) | inconclusive: 34% |
| Cc1ccc(OCc2nnc(SCc3nc4ccccc4[nH]3)n2Cc2ccco2)cc1 | inactive: -0.0445% |
| NS(=O)(=O)c1ccc(N=Nc2c(O)ccc3ccccc23)cc1 | inactive: -0.232% |
| CCOC(=O)c1nn(-c2cccc(C)c2)c2nnc(Cc3ccc(C)cc3)c(=O)n12 | inconclusive: 42.3% |
| Cn1cc(C(=O)N/N=C/C(Br)=C/c2ccccc2)ccc1=O | inactive: 29.4% |
| CN1CCN(c2ncnc3c2c(-c2ccccc2)cn3-c2ccc(F)cc2)CC1 | inactive: 9.42% |
| O=C(O)CCCN1C(=O)/C(=C\c2ccco2)SC1=S | inactive: -0.389% |
| Cc1cc(C(=O)CSc2ccc3c(c2)OCCO3)c(C)n1C1CC1 | inconclusive: 34.8% |

| Structure (SMILES) | activation |
| --- | --- |
| Cc1ccc(N(CC(=O)NCc2ccco2)C(=O)CCC(=O)Nc2nccs2)cc1 | inactive: 3.96% |
| O=C(/C=C/c1cccc(Cl)c1)NCc1cccs1 | inconclusive: 56.9% |
| NC(=NCCCCCCN=C(N)/N=C(\N)Nc1ccc(Cl)cc1)/N=C(\N)Nc1ccc(Cl)cc1 | inactive: -2.67% and inactive: 1.49% and inactive: 1.15% |
| FC(F)Sc1ccc(Nc2ncnc3nc[nH]c23)cc1 | active: 82.9% |
| N#C/C(=C\c1ccncc1)c1nc2c(s1)CCCC2 | inconclusive: 46.5% |
| CC(=O)N1CC(C)Sc2ccc(S(=O)(=O)NCc3ccccc3Cl)cc21 (configuration not stated) | inconclusive: 37.6% |
| CC1=Nc2ccccc2N=C(N)C1c1ccccc1 (configuration not stated) | inconclusive: 39.1% |
| CC(C)(C)C(=O)OCc1nc(-c2ccc(O)c(O)c2)cs1 | active: 91.2% |
| COc1cccc(-n2cnc3scc(-c4cccs4)c3c2=O)c1 | inactive: -4.31% |
| O=C(NCc1cccc(Cl)c1)N1CCN(S(=O)(=O)c2ccccc2F)CC1 | inconclusive: 34.8% |
| CC(C)C[C@@H](CSc1ccc(Br)cc1)N1CCN(CCc2ccccc2)CCC1=O | inactive: 11% |
| COc1ccc(NC(=O)CSc2ncc(-c3ccc(F)cc3)n2Cc2ccco2)cc1 | inconclusive: 43.5% |
| c1ccc(COc2ccccc2CNc2nn[nH]n2)cc1 | inactive: 1.26% |
| COc1cccc(OCc2cc(C(=O)N(C)CCC3CCCCO3)no2)c1 (configuration not stated) | inconclusive: 46.3% |
| CSc1nncc(/C(C)=N\Nc2cccc(C)c2)n1 | inactive: 0.579% |
| Cc1nn(-c2ccccc2)c(Cl)c1/C=N/NC(=O)c1ccccc1F | inactive: 23.2% |
| CCCCc1ccc(NC(=S)NCC2CCCO2)cc1 (configuration not stated) | inactive: 26.4% |
| CCOC(=O)c1ccc(NC(=O)c2nc[nH]c2C(=O)NCCCCNC(=O)c2[nH]cnc2C(=O)Nc2ccc(C(=O)OCC)cc2)cc1 | inactive: -2.56% |
| COc1ccc(C(=O)Nc2nc(-c3cccs3)cs2)cc1 | inconclusive: 43.6% |
| CCc1ccc2c(c1)C(c1ccc([N+](=O)[O-])cc1)=NNC(c1ccc(F)cc1)=N2 | inconclusive: 47.8% |
| Cc1ccc(S(=O)(=O)CC(=O)N2CCN(c3ccc(F)cc3)CC2)cc1 | inconclusive: 36% |
| COc1ccc2[nH]c3c(c2c1)CCn1c-3nc2ccccc2c1=O | inconclusive: 66.3% |
| COc1ccc(CN(C(=O)c2ccc(C)cc2)C2CCS(=O)(=O)C2)cc1 (configuration not stated) | inactive: -1.67% |

Grouped by structure: the compounds so far containing a carbonyl joined to an NH by a bond outside any ring

| Structure (SMILES) | activation |
| --- | --- |
| CS(=O)(=O)c1ccc(C(=O)OCC(=O)NC(=O)C2CCCCC2)cc1[N+](=O)[O-] | inactive: -1.36% |
| CCOC(=O)Cc1csc(NC(=O)c2ccc3c(c2)OCO3)n1 | inconclusive: 37.9% |
| Cn1nccc1C(=O)NC1CCCc2c1cnn2-c1ccc(C(C)(C)C)cc1 (configuration not stated) | active: 81% |
| CC(C)Cn1nc(NC(=O)C2CCCO2)c2cc3ccccc3nc21 (configuration not stated) | inconclusive: 68.3% |
| O=C(CNC(=O)OCc1ccccc1)Nc1ccc(F)cc1 | inconclusive: 31.5% |
| CCC(=O)N1CCc2cc(-c3csc(NC(=O)c4ccco4)n3)ccc21 | inactive: -1.85% |
| Cc1ccc(-c2nn(-c3ccccc3)cc2/C=C/C(=O)OCC(=O)NC2CC2)o1 | inconclusive: 63.1% |
| O=C(Nc1ccc(O)c(-c2nc3ccccc3s2)c1)c1cccs1 | inconclusive: 42.3% |
| Cn1cc(C(=O)N/N=C/C(Br)=C/c2ccccc2)ccc1=O | inactive: 29.4% |
| Cc1ccc(N(CC(=O)NCc2ccco2)C(=O)CCC(=O)Nc2nccs2)cc1 | inactive: 3.96% |
| O=C(/C=C/c1cccc(Cl)c1)NCc1cccs1 | inconclusive: 56.9% |
| O=C(NCc1cccc(Cl)c1)N1CCN(S(=O)(=O)c2ccccc2F)CC1 | inconclusive: 34.8% |
| COc1ccc(NC(=O)CSc2ncc(-c3ccc(F)cc3)n2Cc2ccco2)cc1 | inconclusive: 43.5% |
| Cc1nn(-c2ccccc2)c(Cl)c1/C=N/NC(=O)c1ccccc1F | inactive: 23.2% |
| CCOC(=O)c1ccc(NC(=O)c2nc[nH]c2C(=O)NCCCCNC(=O)c2[nH]cnc2C(=O)Nc2ccc(C(=O)OCC)cc2)cc1 | inactive: -2.56% |
| COc1ccc(C(=O)Nc2nc(-c3cccs3)cs2)cc1 | inconclusive: 43.6% |

Part of the list above in a different format:
Structure (SMILES) | activation
COc1ccc(N=Cc2sc(O)c3ccccc23)cc1 | inactive: 2.12%
Cc1cc(C(=O)CSc2ccc3c(c2)OCCO3)c(C)n1C1CC1 | inconclusive: 34.8%

More structures.

| Structure (SMILES) | activation |
| --- | --- |
| O=C(Nc1nnc(C2CCCCC2)s1)c1cccs1 | inconclusive: 33.9% |
| C=CCc1cccc(/C=N/NC(=O)C(C)Nc2cccc(C)c2)c1O (configuration not stated) | inconclusive: 30.2% |
| CC(C)(C)C1CCC(=O)N(CCOc2ccccc2)CC1 (configuration not stated) | inconclusive: 35.3% |
| O=C1c2ccccc2C(=O)N1OCc1cccc(Cl)c1 | inconclusive: 34.9% |
| O=C(c1cc(C2CC2)nn1-c1ccccc1)N1CCN(S(=O)(=O)c2ccccc2)CC1 | inconclusive: 71.3% |
| O=C(CN1CCN(c2ccccn2)CC1)Nc1ccc2ccccc2c1 | inconclusive: 30.7% |
| O=C(Nc1ccc(NC(=O)c2cc3ccccc3o2)cc1)c1ccco1 | inactive: -0.668% |
| Cc1ccc(C(=O)Nc2cccnc2Cl)cc1Cl | inconclusive: 54.6% |
| CCOc1ccccc1NC(=O)C(NCC1(N2CCCCC2)CCCCC1)c1ccccc1 (configuration not stated) | inconclusive: 40.4% |
| Cc1nc2c(C)cccc2cc1C(=O)N/N=C/c1cccc([N+](=O)[O-])c1 | inconclusive: 66.8% |
| O=C(NCCc1ccccc1)C1CCCN(C(=O)Nc2ccc(F)cc2)C1 (configuration not stated) | inconclusive: 30.1% |
| Cc1c(C(=O)OC2CCC(C)CC2)[nH]c2c1C(=O)CCC2 (configuration not stated) | inconclusive: 52.8% |
| CC(C)c1ccc(C(C(=O)NC2CCCCC2)N(C(=O)c2csnn2)C2CC2)cc1 (configuration not stated) | inconclusive: 56% |
| CC1CCCCN1CCNC(=O)c1ccc2c(=O)n(Cc3ccc(Cl)cc3)c(=S)[nH]c2c1 (configuration not stated) | inactive: -2.62% |
| CCN(CC(=O)NCc1ccncc1)S(=O)(=O)c1ccccc1 | inactive: -2.55% |
| COC(=O)c1c(NC(=O)/C=C/C(=O)O)sc(Cc2ccccc2)c1C | inactive: 0.88% |
| Cc1c(NC(=O)c2cccc(F)c2)c(=O)n(-c2ccccc2)n1C | inactive: -7.8% |
| CC(C)Sc1nc(N2CCOCC2)c2c(c1C#N)CC(C)(C)SC2 | inconclusive: 62.6% |
| N#CCc1ccc(NC(=O)Nc2cccc3ccccc23)cc1 | inconclusive: 52.1% |
| COc1cccc(Nc2nnc(SCC(=O)N3CCOCC3)s2)c1 | inactive: 4.29% |
| COC(=O)c1ccc(NC(=O)CS(=O)(=O)c2ccccc2)cc1 | inconclusive: 30.1% |
| CCOC(=O)c1sc(NC(=O)c2ccc(C)s2)cc1C | inconclusive: 74.8% |
| CC1CCCC(C)N1C(=O)COC(=O)c1n[nH]c(=O)c2ccccc12 (configuration not stated) | inactive: -0.9% |

| Structure (SMILES) | activation |
| --- | --- |
| Cc1ccc(C(=O)NC2CCCc3ccccc32)cc1[N+](=O)[O-] (configuration not stated) | inconclusive: 43.1% |
| Cc1ccccc1NC(=O)C(=O)N/N=C/c1cccc(Br)c1 | inconclusive: 39.7% |
| CCOC(=O)N1CCN(C(=O)c2cc3c(s2)-c2ccccc2OC3)CC1 | inconclusive: 37% |
| O=S(=O)(Nc1cccc2ccccc12)c1ccc2ccccc2c1 | inactive: 15.9% |
| CCNC(=O)NC(=O)COC(=O)CCCSc1nc2ccccc2s1 | inactive: 3.78% |
| COCCNc1oc(-c2ccccc2Cl)nc1C#N | inconclusive: 36.6% |
| CC(C)(C)c1cc(NC(=O)c2ccco2)no1 | inconclusive: 44% |
| CS(=O)(=O)N1CCC(C(=O)N2CCN(c3cccc(Cl)c3)CC2)CC1 | inconclusive: 35.4% |
| c1coc(CNc2ncnc3sc4c(c23)CCCCC4)c1 | inconclusive: 30.1% |
| CC(C)n1cnc2c(NCc3ccccc3)cc(Cc3ccc(F)cc3)cc21 | inconclusive: 32.8% |
| CC12CCC(c3c(C(=O)N4CCOCC4)nn(-c4ccccc4)c31)C2(C)C (configuration not stated) | inconclusive: 40.9% |
| COc1ccccc1CNC(=S)NCc1ccc(Cl)cc1 | inconclusive: 61% |
| CC(C)(C)c1ccc(C(=O)NCCc2ccccc2)cc1 | inconclusive: 74.6% |
| NNC(=O)C1CC1c1ccccc1 (configuration not stated) | inconclusive: 54.3% |
| Brc1ccc(OCc2cn3ccccc3n2)cc1 | inconclusive: 39% |
| COc1ccc2[nH]c(=O)c(CN(CCc3cccc(C)c3)C(C)=O)cc2c1 | inconclusive: 35.2% |
| CC1CN(S(=O)(=O)c2ccccc2)CC(C)O1 (configuration not stated) | inactive: 0.744% |
| CC(NC(=O)c1ccc(Br)cc1)c1ccc2c(c1)CCCC2 (configuration not stated) | inconclusive: 33.3% |
| C=CCn1c(SC(C)C(=O)Nc2ccc(Cl)cn2)nnc1C1CC1 (configuration not stated) | inactive: -8.58% |
| OCCCNc1ncnc2scc(-c3ccc(Cl)cc3)c12 | inactive: 14.5% |
| Cc1ccc(S(=O)(=O)N(CC(=O)Nc2cccnc2)c2ccc(Br)cc2)cc1 | inconclusive: 53.8% |
| CCOc1ccc(C(=O)N2CCN(c3cccc(C)c3C)CC2)cc1 | inconclusive: 48.1% |
| Cc1cccc(NC(=O)COc2ccccc2C)n1 | inconclusive: 58% |
